Among the data in PMC10178772 are binding values, retold here.

By UniProt entry, the sequences of proteins in these tests, tags left out. Residues count along the entry.
UniProt P05106, residues 27-788: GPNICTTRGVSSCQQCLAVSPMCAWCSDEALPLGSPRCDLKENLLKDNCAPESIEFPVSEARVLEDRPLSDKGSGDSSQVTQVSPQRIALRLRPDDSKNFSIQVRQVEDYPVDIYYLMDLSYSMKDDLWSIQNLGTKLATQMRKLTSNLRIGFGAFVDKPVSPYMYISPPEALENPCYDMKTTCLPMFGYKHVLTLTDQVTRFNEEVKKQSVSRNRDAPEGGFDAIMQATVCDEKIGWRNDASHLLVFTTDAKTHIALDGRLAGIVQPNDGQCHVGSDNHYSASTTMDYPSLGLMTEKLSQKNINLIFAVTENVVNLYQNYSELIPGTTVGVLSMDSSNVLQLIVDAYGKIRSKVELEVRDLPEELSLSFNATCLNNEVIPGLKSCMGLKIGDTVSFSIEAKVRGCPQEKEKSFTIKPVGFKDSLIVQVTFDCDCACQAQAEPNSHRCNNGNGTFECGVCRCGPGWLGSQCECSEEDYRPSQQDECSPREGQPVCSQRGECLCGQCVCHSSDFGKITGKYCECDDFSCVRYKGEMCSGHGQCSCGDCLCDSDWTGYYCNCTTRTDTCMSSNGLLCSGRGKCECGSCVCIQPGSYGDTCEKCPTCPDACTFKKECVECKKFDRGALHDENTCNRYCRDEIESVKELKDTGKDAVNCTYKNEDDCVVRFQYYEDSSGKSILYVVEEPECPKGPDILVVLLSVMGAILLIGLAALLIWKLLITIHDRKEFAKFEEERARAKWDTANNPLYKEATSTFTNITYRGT
UniProt O14786, residues 22-923: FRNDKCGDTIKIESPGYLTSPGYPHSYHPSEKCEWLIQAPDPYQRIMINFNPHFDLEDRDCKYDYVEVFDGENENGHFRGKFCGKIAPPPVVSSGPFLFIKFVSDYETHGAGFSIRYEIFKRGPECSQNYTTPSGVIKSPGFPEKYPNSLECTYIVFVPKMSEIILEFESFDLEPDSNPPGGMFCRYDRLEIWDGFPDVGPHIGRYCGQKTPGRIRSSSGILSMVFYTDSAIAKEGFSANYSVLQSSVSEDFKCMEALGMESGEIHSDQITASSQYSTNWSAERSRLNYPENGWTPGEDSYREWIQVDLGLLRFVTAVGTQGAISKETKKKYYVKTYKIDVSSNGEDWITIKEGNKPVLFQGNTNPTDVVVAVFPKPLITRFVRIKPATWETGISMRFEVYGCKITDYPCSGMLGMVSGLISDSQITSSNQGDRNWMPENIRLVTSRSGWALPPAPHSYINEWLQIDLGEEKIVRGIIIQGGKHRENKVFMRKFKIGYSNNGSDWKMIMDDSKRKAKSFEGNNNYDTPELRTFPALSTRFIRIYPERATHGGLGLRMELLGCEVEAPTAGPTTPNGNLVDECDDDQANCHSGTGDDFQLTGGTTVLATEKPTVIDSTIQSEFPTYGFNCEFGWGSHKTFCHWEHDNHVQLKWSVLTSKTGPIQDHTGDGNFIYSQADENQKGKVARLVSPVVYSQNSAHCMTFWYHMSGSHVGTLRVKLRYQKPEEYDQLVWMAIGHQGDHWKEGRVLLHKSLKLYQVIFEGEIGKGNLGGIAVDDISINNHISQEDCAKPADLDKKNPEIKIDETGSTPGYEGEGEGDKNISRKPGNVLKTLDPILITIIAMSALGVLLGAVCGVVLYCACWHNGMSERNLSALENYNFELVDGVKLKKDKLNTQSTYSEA

For this assay, the target named is HER-2 (human (endogenous in MDA-MB-231)) (UniProt P04626). Briefly: co-IP; HER2 antibody immunoprecipitates HER2 from soluble cell lysates (Cell Signaling lysis buffer Cat# 9803) of parental MDA-MB-231, NRP-1 KO and NRP-1 rescue cells; blot probed in turn with anti-NRP-1, anti-HER-2 and anti-ITGB3; control IP with lysis buffer without protein.

No constants are given. Whether binding was seen depends on the method and setting. Binding seen in cells or lysates may run through a third protein. Some entries that bind do so weakly or less than the wild type.

Regarding “Integrin β3 (ITGB3) (from UniProt P05106 27-788) (receptor)”, the binding entry is given as “binds”.

As for “Neuropilin-1 (NRP-1) from the CRISPR/Cas9-resistant human rescue cDNA in NRP-1 KO MDA-MB-231 cells (from UniProt O14786 22-923) (receptor)”, the binding result is “binds”. Under “Neuropilin-1 (NRP-1), endogenous in parental MDA-MB-231 cells (from UniProt O14786 22-923) (receptor)” stands “binds”.
